The values below come from patent US7125969, “ETS-related gene overexpressed in human breast and epithelial cancers” (The Regents of the University of California).

Where a protein sequence is shown, tags need not be part of it. For some assays here: Construct, isoform or probe ends are uncertain for at least one entry.

The target in series [1] is T1, ESX (full-length, expressed in COS cells) (Homo sapiens) (UniProt P78545).
T1 sequence: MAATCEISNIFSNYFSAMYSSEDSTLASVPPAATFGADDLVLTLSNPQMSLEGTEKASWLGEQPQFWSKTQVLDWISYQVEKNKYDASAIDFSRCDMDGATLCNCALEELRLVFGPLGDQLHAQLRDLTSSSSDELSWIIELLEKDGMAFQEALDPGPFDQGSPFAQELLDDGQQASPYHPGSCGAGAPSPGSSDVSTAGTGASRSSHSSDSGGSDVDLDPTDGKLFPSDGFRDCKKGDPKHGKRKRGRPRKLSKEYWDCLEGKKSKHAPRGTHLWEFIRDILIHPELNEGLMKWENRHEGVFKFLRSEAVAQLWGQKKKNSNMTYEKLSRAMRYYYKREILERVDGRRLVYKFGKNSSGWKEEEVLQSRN
As to the kind of experiment: activity in cells. The following applies: CAT reporter induced in COS cells; protein in cells; protein details: pcDNA1/Amp expression; only the site is given.

In series [2] the target is T2, ESX (full-length, His-tagged) (Homo sapiens) (UniProt P78545).
T2 sequence: T1 sequence
The series can be described thus: footprint. The following applies: DNase I footprint with hypersensitive site; ~10 ng protein, room temperature; purified recombinant protein; protein details: His-tag (pRSETA), E. coli BL21(DE3)pLysS; label: antisense strand labeled at SmaI site; only the site is given.

As for “GGAGGAGGGCTGCTTGAGGAAGTATAAGAAT (double strand) [3xTA5 reporter (p3TA5-BLCAT5)]”, the “activity on this sequence” value in series [1] was “active”.
Turning to ATACTTCCTCAAGCA (double strand), in series [2], the binding result was “binds”.
